According to patent US20050028229A1 (published 2005):
These are yes or no findings as the source states them, for the method shown. Binding seen in cells or lysates may run through a third protein. Some results given as binding are weak or reduced against the parent protein; the word gives no strength. Tags and fused reporters may be left off the sequences shown.

The chains behind the UniProt entries cited, without tags or fusion partners.
UniProt P01942: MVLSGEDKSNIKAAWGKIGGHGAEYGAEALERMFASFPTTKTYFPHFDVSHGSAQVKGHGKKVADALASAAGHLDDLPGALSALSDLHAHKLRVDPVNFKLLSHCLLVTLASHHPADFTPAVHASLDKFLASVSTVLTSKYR

Biological target: hemagglutinin (HA)-tagged murine α-hemoglobin (murine) (UniProt P01942)
Assay: co-immunoprecipitation from COS cell extracts, western blot

- binding: binds
B1: V5-epitope-tagged murine AHSP (protein, UniProt Q9CY02 1-102, looked up, not shown: small tags and cut ends)
chain: MAPFQSNKDLISTGIKEFNVLLDQQVFDDPLISEEDMVIVVHDWVNLYTNYYKKLVHGEQEEQDRAMTEFQQELSTLGSQFLAKYRTFLKSKEPPSNTLPSS
